PubChem BioAssay AID652259 | Drosophila RNAi Screening Center – 2013

Purpose: 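Knock-downs that push a Wingless-driven reporter up or down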 (primary screen)
System: Drosophila clone 8 imaginal disc epithelial cells
Reagents: long dsRNA against Drosophila genes
Challenge: pathway stimulated by co-transfected Wingless expression plasmid
Read-out: 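Dual luciferase reads per well after Wingless plasmid stimulation: reporter firefly light and Renilla control light; activity is firefly divided by Renilla, a ratio not deposited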
Direction: firefly reporter light: higher = more Wg reporter light, before normalisation; Renilla control light: higher = more transfected or surviving cells
Hit rule: 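a knock-down is a candidate when at least two out of four statistical tests show it departing from its plate mean; one test alone signals a weak candidate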
Calls: active = candidate regulator (raises or lowers reporter); inactive = not a candidate
The screen tested about 22,000 reagents; below is an unselected part of those that have a named target and a result. Of all reagents, 233 (1.1%) were called active. 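Light values are raw, unnormalised plate reads; the ratio scores behind the reporter calls were not deposited.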 Entries without a mark were called inactive. Names joined by + are all predicted targets of the reagent. Reagent sequences are not shown. Not stated in the record: the amount of reagent, the time to read-out, the dose of the treatment.

The opening 5 entries, to show the layout:
| gene knocked down | dsRNA | firefly reporter light, replicate 1 | firefly reporter light, replicate 2 | Renilla control light, replicate 1 | Renilla control light, replicate 2 |
| --- | --- | --- | --- | --- | --- |
| Rab9Db + Rab9D + Rab9E | DRSC17656 | 3132 | – | 1187 | – |
| CG17754 | DRSC18131 | 1296 | 5028 | 694 | 1968 |
| CG9541 | DRSC03257 | 2421 | 7619 | 876 | 3495 |
| Aplip1 | DRSC07947 | 5057 | – | 2039 | – |
| Aplip1 | DRSC08697 | 6355 | – | 2966 | – |

Main list, from the first entry:
| gene knocked down | dsRNA | firefly reporter light, replicate 1 | firefly reporter light, replicate 2 | Renilla control light, replicate 1 | Renilla control light, replicate 2 |
| --- | --- | --- | --- | --- | --- |
| Rab9Db + Rab9D + Rab9E | DRSC17656 | 3132 | – | 1187 | – |
| CG17754 | DRSC18131 | 1296 | 5028 | 694 | 1968 |
| CG9541 | DRSC03257 | 2421 | 7619 | 876 | 3495 |
| Aplip1 | DRSC07947 | 5057 | – | 2039 | – |
| Aplip1 | DRSC08697 | 6355 | – | 2966 | – |
| Aplip1 | DRSC21587 | 5.09e5 | 6.42e5 | 2.64e5 | 2.09e5 |
| Tctp | DRSC15649 | 15798 | – | 3674 | – |
| CG9360 | DRSC20180 | 12877 | – | 7946 | – |
| CG31460 | DRSC14370 | 5765 | – | 2152 | – |
| Syx6 | DRSC07032 | 10521 | – | 3123 | – |
| CG3108 | DRSC18280 | 4725 | 7979 | 1287 | 2667 |
| CG12784 | DRSC14539 | 14519 | – | 4359 | – |
| Cbs | DRSC20553 | 2117 | 5509 | 829 | 2594 |
| tyn | DRSC20652 | 15515 | – | 11128 | – |
| dpr7 | DRSC17109 | 3264 | – | 1180 | – |
| CG33257 | DRSC09917 | 5600 | – | 2201 | – |
| CG33937 (retired record) | DRSC15148 | 12691 | – | 3408 | – |
| CG11664 | DRSC18650 | 15696 | – | 14337 | – |
| CG5883 | DRSC10552 | 6791 | – | 2707 | – |
| CG15128 | DRSC06550 | 5088 | – | 1558 | – |
| CG34225 | DRSC05270 | 16467 | – | 13752 | – |
| brk | DRSC18745 | 11939 | – | 3717 | – |
| CG14731 | DRSC14952 | 19351 | – | 6586 | – |
| CG6660 | DRSC16087 | 2648 | 6761 | 1395 | 2512 |
| GstE6 | DRSC06676 | 7914 | – | 2818 | – |
| CG42327 | DRSC14936 | 22522 | – | 3045 | – |
| CG42327 | DRSC14937 | 24464 | – | 5366 | – |
| CG10903 | DRSC14281 | 16966 | – | 4899 | – |
| Acat1 | DRSC17766 | 2400 | 6741 | 1200 | 1993 |
| Moe | DRSC18684 | 1280 | 7672 | 557 | 2145 |
| mxt | DRSC00551 | 18368 | – | 2917 | – |
| CG7724 | DRSC10905 | 3932 | – | 1736 | – |
| dpr17 | DRSC12885 | 2400 | – | 736 | – |
| dpr17 | DRSC14957 | 10717 | – | 1378 | – |
| dpr17 | DRSC14958 | 17964 | – | 5040 | – |
| CG16854 | DRSC02536 | 3003 | 8072 | 1232 | 4380 |
| CG1701 | DRSC06641 | 2009 | 4781 | 757 | 1808 |
| CanA-14F | DRSC20211 | 17824 | – | 3221 | – |
| CG43191 | DRSC05326 | 16528 | – | 11261 | – |
| CG31751 | DRSC02464 | 3881 | 8092 | 413 | 3266 |
| CG31751 | DRSC02465 | 1995 | 8689 | 329 | 3392 |
| Tsf3 | DRSC06849 | 12424 | – | 3210 | – |
| Orc1 | DRSC07496 | 2848 | – | 432 | – |
| CG5515 | DRSC15825 | 2336 | 3771 | 1207 | 1267 |
| Gug | DRSC11179 | 2067 | 5408 | 1305 | 3104 |
| Eip63E | DRSC08658 | 7552 | – | 2866 | – |
| CG10508 | DRSC11612 | 7691 | – | 3180 | – |
| CG10508 | DRSC11613 | 22938 | – | 6304 | – |
| CG43317 | DRSC15000 | 10659 | – | 3264 | – |
